Test results as given in PMC10568961 (Research in Pharmaceutical Sciences, 2023).

Key:
[1] = tested on: A549 (human lung carcinoma) cells; experiment: MTS cell viability assay, A549 cells; format: cell-based; settings: results at 72-h
[2] = tested on: A549 (human lung carcinoma) cells; experiment: Trypan blue dye exclusion assay, A549 cells; format: cell-based; settings: 72 h
Procedure, shortened: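 Cells were seeded at 5,000/well for 24 h: MRC-5 in EMEM and A549 in F-12K, each with 10% FBS. They were then given test compound (50, 100, 150 μg/mL), cisplatin (0.5, 1, 2 μg/mL) or 0.5% DMSO control for 24–72 h at 37 °C, 5% CO2. After trypsinisation, viable cells were counted by trypan blue exclusion on a hemocytometer (quadruplicate wells). IC50 came from growth curves. At least three repeats.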

SMILES: N.N.[Cl][Pt][Cl] [DDP, cis-diamminedichloroplatinum II]
- IC50 values, A549 cells [1]: 0.63 ± 0.03 µg/mL
- IC50 values, A549 cells [2]: 0.42 ± 0.04 µg/mL
